PubChem BioAssay AID602196 | INSERM, 2012
Test: 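Genes whose knock-down alters cisplatin killing of lung cancer cells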. System: human A549 lung cancer cells. Reagent: siRNA pair against human genes. Time to read-out: 48 h transfection before cisplatin; time from cisplatin to read-out not stated. Conditions: cisplatin at a dose killing half of control-siRNA cells; exact dose and duration not given. Detection: 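Cisplatin cell death as a shift from the 50% death seen with control siRNA; siRNAs toxic or growth-blocking alone scored 0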. Scale: two-siRNA summed score (-2 to +2): higher = both siRNAs protect from cisplatin killing; -2 means both sensitise; mean protection from cisplatin (shift in death) and protection from cisplatin (shift in death), siRNA C and protection from cisplatin (shift in death), siRNA D: higher = protection from cisplatin killing. Active means: 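siRNAs harmful alone (LDH or WST-1) get 0; others get +1 for less and -1 for more cisplatin killing; genes are active when the two siRNAs give the same sign, summing to ±2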. Calls: active = both siRNAs shift cisplatin killing the same way; inactive = no consistent shift, or siRNA harmful alone.
This is one part, drawn at random, of about 23,000 reagents. 455 of them (2%) count as active. 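Active includes both protection and sensitisation; some change values fall well beyond the stated -50 to +50 range.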 A number with no mark means an inactive call. No sequences are given here. The record does not give: the amount of reagent.

gene,two-siRNA summed score (-2 to +2),mean protection from cisplatin (shift in death) (%),"protection from cisplatin (shift in death), siRNA C (%)","protection from cisplatin (shift in death), siRNA D (%)"
SLC35G5,0,7.6,6.8,8.5
GYG2,0,9.1,7.9,10.3
OR4F4,0,3.6,6.1,1.1
KIAA0339,-1,-7.4,-13.5,-1.4
SNU13,0,22.7,33.6,11.9
EZH1,0,4.4,2.7,6.1
CACNA2D4,-1,-10.7,-34.2,12.8
LINC00649,0,-0.9,-6.1,4.3
ACRV1,-1,1.9,-5.2,9
LOC439997,0,3.5,4.4,2.6
GRAP2,0,-3.8,1.2,-8.9
CHSY1,0,13.2,7.1,19.2
LOC442720,0,8.1,7.5,8.7
SCN3B,0,3.8,-0.3,7.9
EEF1D,0,0.6,6.2,-5
LOC390243,0,15.5,34.2,-3.2
LOC440114,0,24,9.3,38.7
RPS9,0,28.4,30.6,26.1
CADM1,1,15.2,7,23.4
ECI1,0,0.1,-13.5,13.7
TGFB1I1,0,-0.6,-6.5,5.2
PXT1,0,-0.6,-5.4,4.3
DNAJC24,0,11.2,13.3,9.2
ALDH8A1,-1,-1.2,-9,6.6
PMS1,0,-18.5,-30.7,-6.4
AVPR2,0,-8.8,-6.3,-11.3
SLFNL1,0,-0.8,-8.3,6.8
KRABD4,-1,-11.9,-13.8,-10
KRTAP2-4,0,-10.2,-11.4,-9
LOC139587,0,15.7,11.2,20.3
USP41P,-1,-2.6,10.5,-15.8
GMIP,0,-2.5,-5.5,0.5
RPL35,0,2.6,-2.1,7.4
NEIL3,0,5.4,1.7,9.2
TMEM156,0,1.6,-3.2,6.3
LOC440385,0,19.7,14,25.4
RHPN2,0,6.3,16.1,-3.5
ESRP1,0,13.4,2.5,24.2
LOC283117,1,11.7,3.8,19.6
ARFGAP3,0,0.6,2.2,-0.9
USP37,0,1.2,4.2,-1.9
HOMER1,-1,-10.5,-24.3,3.2
UBE2I,0,16.7,19.2,14.1
LOC441687,2 (active),13.6,14.1,13
UPK3A,0,6.6,16.8,-3.6
LOC389353,0,9.8,8.9,10.8
LOC340393,0,-7.6,-8,-7.2
ODF2L,0,9.2,14.8,3.6
TCF21,0,14,2.6,25.4
LOC440004,0,5.2,3.9,6.4
GPD1,0,7.4,12.2,2.6
NRG1,1,9.8,12.7,6.9
MIR9-1HG,1,8.2,12.3,4.1
MCM6,1,9,15.5,2.4
LOC391540,0,9.2,0.7,17.6
ELF3,-1,-6.7,-4.4,-9
PLEKHF2,0,16.3,5.4,27.2

Looked up above:
Under “mean protection from cisplatin (shift in death) (%)”, UPK3A shows 6.6
Result of LOC139587 under “two-siRNA summed score (-2 to +2)”: 0
LOC441687, two-siRNA summed score (-2 to +2) = 2 (active)
AVPR2, protection from cisplatin (shift in death), siRNA C (%) = -6.3
Entry for GMIP under “two-siRNA summed score (-2 to +2)”: 0
SLFNL1, two-siRNA summed score (-2 to +2) = 0
